According to paper PMC7923178, “Binding of Amyloid β(1–42)-Calmodulin Complexes to Plasma Membrane Lipid Rafts in Cerebellar Granule Neurons Alters Resting Cytosolic Calcium Homeostasis” (International Journal of Molecular Sciences, 2021):
Results are given in words; binding and its absence hold for the method and conditions named. Binding seen in cells or lysates may run through a third protein.

Amino acid sequences for entries named in this document (tags omitted). Residues count along the entry.
UniProt P05067, residues 672-713: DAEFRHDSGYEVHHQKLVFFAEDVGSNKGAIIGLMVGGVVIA

Molecular target: amyloid β(1–42) (UniProt P05067)
Assay: co-IP; 200 µg CGN lysate, pre-treated with 10 mM methyl-β-cyclodextrin for 30 min at 4 °C, incubated with 5 µg mouse anti-β-amyloid antibody (Sigma A8354) and protein A/G PLUS-Agarose; then […] Aβ(1–42) in PBS (or PBS alone as control) for 1 h at 4 °C; washes with PBS plus […] Aβ(1–42); western …; only the target purified

B1: caveolin-1 (protein, UniProt P41350 1-178)
chain: MSGGKYVDSEGHLYTVPIREQGNIYKPNNKAMADEVNEKQVYDAHTKEIDLVNRDPKHLNDDVVKIDFEDVIAEPEGTHSFDGIWKASFTTFTVTKYWFYRLLSTIFGIPMALIWGIYFAILSFLHIWAVVPCIKSFLIEIQCISRVYSIYVHTFCDPLFEAIGKIFSNIRISTQEEI
In the case of B1, the binding is reported as “no binding (tested: 0.25 µM Aβ(1–42))”.
